# Record: PubChem BioAssay AID652243 (Drosophila RNAi Screening Center, 2013)
# Assay: 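Fly regulators of androgen-dependent reporter output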 (primary screen)
# Cell system: Drosophila S2R+ cells
# Reagent: long dsRNA against Drosophila genes
# Timing: 72 h (48 h, then 24 h hormone)
# Treatment: synthetic androgen R1881 at 10 nM for 24 h
# Measurement: 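Firefly light from an androgen-responsive reporter and Renilla control light per well, raw and unnormalised, for each of two replicates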
# Scale: firefly reporter light: higher = more light from androgen-responsive reporter; Renilla control light: higher = more constitutive control signal (cell number, transfection)
# Call rule: 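Hit when the log firefly-to-Renilla ratio dropped or increased by a fixed fold versus the mean of GFP or LacZ controls across duplicate plates; lowering cut given as 1.5 and as 3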
# Meaning of the calls: active = hit: reporter lowered or raised; inactive = no hit
# The deposit covers about 24,000 reagents; below is an unselected part of those that have a named target and a result. Over the whole deposit, 246 (1%) are marked active. 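Plates not normalised; calls are printed but the firefly/Renilla ratio behind them is not deposited; fold cut for lowering reported inconsistently.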 Raw values vary from plate to plate and are shown uncorrected. A plus sign joins genes that one reagent is predicted to hit. No sequences are given here. The record does not give: the amount of reagent.
gene knocked down,dsRNA,"firefly reporter light, replicate 1","firefly reporter light, replicate 2","Renilla control light, replicate 1","Renilla control light, replicate 2",call
Kr-h1 (GeneID 33861),DRSC00908,1.67e5,1.36e5,3.25e5,2.33e5,inactive
Kr-h1 (GeneID 33861),DRSC03355,6.63e5,8.56e5,1.41e6,1.46e6,inactive
Kr-h1 (GeneID 33861),DRSC23629,3.81e5,5.59e5,5.05e5,5.49e5,inactive
CG15465 (GeneID 31434),DRSC18048,2.81e5,3.12e5,2.17e6,2.02e6,inactive
CG15465 (GeneID 31434),DRSC26250,1.76e5,1.60e5,5.94e5,5.37e5,inactive
CG13609 (GeneID 42883),DRSC14612,1.61e5,2.13e5,2.17e6,2.61e6,inactive
CG13609 (GeneID 42883),DRSC22843,5.87e5,1.29e6,1.28e6,2.10e6,inactive
Nop17l (GeneID 35730),DRSC06556,1.16e6,7.31e5,1.61e6,7.16e5,inactive
Nop17l (GeneID 35730),DRSC29430,3.97e5,4.59e5,1.57e6,1.57e6,inactive
zfh1 (GeneID 43650),DRSC17098,44302,12653,2.03e5,1.40e5,inactive
zfh1 (GeneID 43650),DRSC26931,2.21e5,1.55e5,4.38e5,3.03e5,inactive
naz (GeneID 42204),DRSC14790,1.72e5,1.79e5,2.18e6,2.43e6,inactive
naz (GeneID 42204),DRSC16199,1.08e5,93691,1.80e6,1.43e6,inactive
mRpL54 (GeneID 37389),DRSC04545,7.37e5,5.96e5,2.11e6,2.40e6,inactive
cpo (GeneID 45840),DRSC13265,1.85e5,2.50e5,6.23e5,9.85e5,inactive
cpo (GeneID 45840),DRSC13273,1.51e5,1.54e5,2.65e5,2.50e5,inactive
cpo (GeneID 45840),DRSC23006,3.38e5,4.09e5,1.19e6,1.59e6,inactive
cpo (GeneID 45840),DRSC25799,3.45e5,2.66e5,6.62e5,5.32e5,inactive
cpo (GeneID 45840),DRSC38943,7.05e5,5.81e5,1.44e6,1.16e6,inactive
Grx5 (GeneID 32410),DRSC19593,4.00e5,2.73e5,3.76e6,2.31e6,inactive
CG13712 (GeneID 38574),DRSC08321,1.82e5,1.54e5,2.16e6,2.81e6,inactive
CG34382 (GeneID 5740788),DRSC10166,1.70e5,1.55e5,1.57e6,1.93e6,inactive
CG34382 (GeneID 5740788),DRSC10167,1.38e5,1.75e5,1.95e6,2.44e6,inactive
CG9130 + CG9133,DRSC08624,5.81e5,5.46e5,2.49e6,2.61e6,inactive
CG9130 + CG9133,DRSC08625,6.12e5,5.16e5,9.83e5,1.14e6,inactive
CG9130 + CG9133,DRSC22010,8.21e5,9.97e5,1.34e6,9.67e5,inactive
CG9130 + CG9133,DRSC29697,6.42e5,4.78e5,1.52e6,1.58e6,inactive
CarT (GeneID 35334),DRSC03196,9.15e5,8.53e5,1.14e6,1.32e6,inactive
CarT (GeneID 35334),DRSC27070,2.65e5,2.11e5,6.59e5,4.95e5,inactive
tin (GeneID 42536),DRSC17083,2.71e5,3.09e5,2.81e6,3.56e6,inactive
tin (GeneID 42536),DRSC23248,4.03e5,3.05e5,1.29e6,1.18e6,inactive
tin (GeneID 42536),DRSC28260,4.08e5,7.14e5,1.11e6,1.75e6,inactive
Elo68alpha (GeneID 317841),DRSC22725,8.81e5,7.42e5,2.06e6,1.95e6,inactive
Lip1 (GeneID 43973),DRSC03364,2.47e5,2.40e5,1.75e6,1.79e6,inactive
CG10598 (GeneID 32713),DRSC19358,6.85e5,4.99e5,3.43e6,3.38e6,inactive
CG10598 (GeneID 32713),DRSC25200,7.80e5,8.78e5,1.12e6,1.29e6,inactive
CG14190 (GeneID 32891),DRSC19545,1.90e5,91103,7.34e5,2.80e5,inactive
CG14190 (GeneID 32891),DRSC27410,2.36e5,1.98e5,6.42e5,5.53e5,inactive
CG4686 (GeneID 42361),DRSC15622,4.16e5,3.35e5,3.49e6,4.11e6,inactive
JTBR (GeneID 38235),DRSC08667,1.02e5,66366,7.06e5,8.10e5,inactive
conv (GeneID 36588),DRSC07213,77507,97835,1.30e6,1.30e6,inactive
RFeSP (GeneID 44390),DRSC00702,1.52e5,1.66e5,1.15e6,1.25e6,inactive
RFeSP (GeneID 44390),DRSC27607,3.17e5,2.61e5,5.54e5,4.77e5,inactive
CG13539 (GeneID 37680),DRSC04181,1.87e5,2.17e5,1.19e6,1.39e6,inactive
CG13539 (GeneID 37680),DRSC28683,5.63e5,4.24e5,1.60e6,1.48e6,inactive
CG17298 (GeneID 42529),DRSC15221,2.86e5,2.46e5,3.16e6,2.91e6,inactive
CG17298 (GeneID 42529),DRSC27897,5.73e5,3.01e5,1.44e6,1.15e6,inactive
ApepP (GeneID 35029),DRSC01866,8.39e5,1.13e6,1.26e6,1.31e6,inactive
Zir (GeneID 33165),DRSC00307,1.35e6,1.48e6,5.19e6,3.06e6,inactive
CG17234 (GeneID 59225),DRSC00490,1.36e5,63291,6.71e5,4.84e5,inactive
robls54B (GeneID 5740248),DRSC38867,9.73e5,8.69e5,1.99e6,1.77e6,inactive
CG31467 (GeneID 318751),DRSC16048,2.71e5,2.84e5,3.47e6,3.04e6,inactive
CG31467 (GeneID 318751),DRSC28533,3.08e5,5.13e5,3.80e5,1.12e6,inactive
IntS10 (GeneID 38444),DRSC08173,78045,87486,1.12e6,1.33e6,inactive
Elk (GeneID 37047),DRSC07608,9.42e5,1.02e6,2.29e6,2.15e6,inactive
Adk3 (GeneID 44750),DRSC05917,9.16e5,3.92e5,1.20e6,9.73e5,inactive
Adk3 (GeneID 44750),DRSC28006,4.53e5,3.74e5,1.49e6,1.31e6,inactive
Adk3 (GeneID 44750),DRSC37040,,,,,inactive

An excerpt from above, limited to “Renilla control light, replicate 1”:
Kr-h1 (GeneID 33861) [DRSC23629]	5.05e5
CG15465 (GeneID 31434) [DRSC18048]	2.17e6
CG15465 (GeneID 31434) [DRSC26250]	5.94e5
